We go through one molecule from patent US20060252697A1 (ANTYRA, published 2006).

In the experiment the target is T1, GHBP-H5 peptide (H5WT).
T1 sequence (peptide, biotinylated in the BIAcore and TRFD formats (position not stated)): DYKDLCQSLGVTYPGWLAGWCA
Kind of experiment: BIAcore, H5 on a streptavidin chip (1100 RU), rGHBP injected at 500 µg/ml.

Results are given in words; binding and its absence hold for the method and conditions named. Some entries that bind do so weakly or less than the wild type.

B1: rat growth hormone binding protein (rGHBP) (receptor, UniProt P16310 19-265, looked up)
chain: FPGSGATPATLGKASPVLQRINPSLRESSSGKPRFTKCRSPELETFSCYWTEGDDHNLKVPGSIQLYYARRIAHEWTPEWKECPDYVSAGANSCYFNSSYTSIWIPYCIKLTTNGDLLDEKCFTVDEIVQPDPPIGLNWTLLNISLPGIRGDIQVSWQPPPSADVLKGWIILEYEIQYKEVNETKWKTMSPIWSTSVPLYSLRLDKEHEVRVRSRQRSFEKYSEFSEVLRVTFPQMDTLAACEEDFR
B1: the binding entry was “binds”.
